The record followed here is PubChem BioAssay AID188 (DTP/NCI, 2004).

Shown are survivors of the treated group in tumour-free mice. Counts of survivors are from the toxicity check (mostly the fifth day) where no day follows; animals may have died later. Schedules are NCI's codes, taken here to give the interval after Q, in days (D) or hours (H), and the number of doses after X.

The assay relates to CD2F1 mice, nontumored, toxicity/survival. In words: NCI In Vivo Anticancer Drug Screen. Data for tumor model Nontumored Animals (Toxicity Test) in CD2F1 (CDF1) mice.

In the case of `NC(=O)c1[nH]nc(C2OC(CO)C(O)C2O)c1O` (centres undefined), the survivor count by setting is: (dose: 0.25 mg/kg/injection, schedule: Q01DX009 (ip), vehicle: saline) 8 of 8; (dose: 0.5 mg/kg/injection, schedule: Q01DX009 (ip), vehicle: saline) 8 of 8; (dose: 0.5 mg/kg/injection, schedule: Q04DX003 (ip), vehicle: saline) 8 of 8; (dose: 1.0 mg/kg/injection, schedule: Q01DX009 (ip), vehicle: saline) 8 of 8; (dose: 1.0 mg/kg/injection, schedule: Q04DX003 (ip), vehicle: saline) 8 of 8; (dose: 2.0 mg/kg/injection, schedule: Q01DX009 (ip), vehicle: saline) 8 of 8. Besides, the survivor count by setting is: (dose: 2.0 mg/kg/injection, schedule: Q04DX003 (ip), vehicle: saline) 8 of 8; (dose: 4.0 mg/kg/injection, schedule: Q01DX009 (ip), vehicle: saline) 8 of 8; (dose: 4.0 mg/kg/injection, schedule: Q04DX003 (ip), vehicle: saline) 8 of 8; (dose: 8.0 mg/kg/injection, schedule: Q01DX009 (ip), vehicle: saline) 8 of 8; (dose: 8.0 mg/kg/injection, schedule: Q04DX003 (ip), vehicle: saline) 8 of 8; (dose: 16.0 mg/kg/injection, schedule: Q01DX009 (ip), vehicle: saline) 4 of 6. In addition, the survivor count by setting is: (dose: 16.0 mg/kg/injection, schedule: Q04DX003 (ip), vehicle: saline) 8 of 8; (dose: 32.0 mg/kg/injection, schedule: Q04DX003 (ip), vehicle: saline) 8 of 8.

As for `O=[N+]([O-])c1cnc[nH]1`, the survivor count is 3 of 3 (dose: 62.5 mg/kg/injection, schedule: Q01DX005 (ip), vehicle: saline with Tween-80); 3 of 3 (dose: 125.0 mg/kg/injection, schedule: Q01DX005 (ip), vehicle: saline with Tween-80); 3 of 3 (dose: 250.0 mg/kg/injection, schedule: Q01DX001 (ip), vehicle: saline with Tween-80); 3 of 3 (dose: 250.0 mg/kg/injection, schedule: Q01DX005 (ip), vehicle: saline with Tween-80); 3 of 3 (dose: 500.0 mg/kg/injection, schedule: Q01DX001 (ip), vehicle: saline with Tween-80); 2 of 3 (dose: 500.0 mg/kg/injection, schedule: Q01DX005 (ip), vehicle: saline with Tween-80). Where the note is “dose: 1000.0 mg/kg/injection, schedule: Q01DX001 (ip), vehicle: saline with Tween-80”, the survivor count is recorded as 2 of 3.

As for `CN(C)CC(=O)c1ccc(O)c(O)c1`, the survivor count (dose: 8.0 mg/kg/injection, schedule: Q03HX024 (ip), vehicle: saline) is 8 of 8; the survivor count (dose: 16.0 mg/kg/injection, schedule: Q03HX008 (ip), vehicle: saline) is on record as 8 of 8; the survivor count (dose: 16.0 mg/kg/injection, schedule: Q03HX016 (ip), vehicle: saline) is 8 of 8; the survivor count (dose: 16.0 mg/kg/injection, schedule: Q03HX024 (ip), vehicle: saline) is listed as 8 of 8; the survivor count (dose: 32.0 mg/kg/injection, schedule: Q03HX008 (ip), vehicle: saline) is 8 of 8; the survivor count (dose: 32.0 mg/kg/injection, schedule: Q03HX016 (ip), vehicle: saline) is 8 of 8. In addition, the survivor count runs as follows: (dose: 32.0 mg/kg/injection, schedule: Q03HX024 (ip), vehicle: saline) 8 of 8; (dose: 64.0 mg/kg/injection, schedule: Q01DX009 (ip), vehicle: saline) 8 of 8; (dose: 64.0 mg/kg/injection, schedule: Q01DX009 (sc), vehicle: saline) 8 of 8; (dose: 64.0 mg/kg/injection, schedule: Q03HX008 (ip), vehicle: saline) 8 of 8; (dose: 64.0 mg/kg/injection, schedule: Q03HX016 (ip), vehicle: saline) 8 of 8; (dose: 64.0 mg/kg/injection, schedule: Q03HX024 (ip), vehicle: saline) 8 of 8. Moreover, the survivor count was 8 of 8 (dose: 64.0 mg/kg/injection, schedule: Q04DX003 (ip), vehicle: saline); 8 of 8 (dose: 128.0 mg/kg/injection, schedule: Q01DX001 (ip), vehicle: saline); 8 of 8 (dose: 128.0 mg/kg/injection, schedule: Q01DX001 (oral), vehicle: saline); 8 of 8 (dose: 128.0 mg/kg/injection, schedule: Q01DX001 (sc), vehicle: saline); 8 of 8 (dose: 128.0 mg/kg/injection, schedule: Q01DX009 (ip), vehicle: saline); 8 of 8 (dose: 128.0 mg/kg/injection, schedule: Q01DX009 (oral), vehicle: saline). Besides, the survivor count is, setting by setting: (dose: 128.0 mg/kg/injection, schedule: Q01DX009 (sc), vehicle: saline) 8 of 8; (dose: 128.0 mg/kg/injection, schedule: Q03HX008 (ip), vehicle: saline) 8 of 8; (dose: 128.0 mg/kg/injection, schedule: Q03HX016 (ip), vehicle: saline) 8 of 8; (dose: 128.0 mg/kg/injection, schedule: Q04DX003 (ip), vehicle: saline) 8 of 8; (dose: 128.0 mg/kg/injection, schedule: Q08DX002 (ip), vehicle: saline) 8 of 8; (dose: 256.0 mg/kg/injection, schedule: Q01DX001 (ip), vehicle: saline) 8 of 8. For the same compound, the survivor count (dose: 256.0 mg/kg/injection, schedule: Q01DX001 (oral), vehicle: saline) was 8 of 8; the survivor count (dose: 256.0 mg/kg/injection, schedule: Q01DX001 (sc), vehicle: saline) is listed as 8 of 8; the survivor count (dose: 256.0 mg/kg/injection, schedule: Q01DX009 (ip), vehicle: saline) is 8 of 8; the survivor count (dose: 256.0 mg/kg/injection, schedule: Q01DX009 (oral), vehicle: saline) is reported as 8 of 8; the survivor count (dose: 256.0 mg/kg/injection, schedule: Q01DX009 (sc), vehicle: saline) is given as 8 of 8; the survivor count (dose: 256.0 mg/kg/injection, schedule: Q04DX003 (ip), vehicle: saline) is on record as 8 of 8. For the same compound, the survivor count is 8 of 8 (dose: 256.0 mg/kg/injection, schedule: Q08DX002 (ip), vehicle: saline); 8 of 8 (dose: 512.0 mg/kg/injection, schedule: Q01DX001 (ip), vehicle: saline); 8 of 8 (dose: 512.0 mg/kg/injection, schedule: Q01DX001 (oral), vehicle: saline); 8 of 8 (dose: 512.0 mg/kg/injection, schedule: Q01DX001 (sc), vehicle: saline); 8 of 8 (dose: 512.0 mg/kg/injection, schedule: Q01DX009 (ip), vehicle: saline); 8 of 8 (dose: 512.0 mg/kg/injection, schedule: Q01DX009 (oral), vehicle: saline). The survivor count is recorded as 8 of 8 (dose: 512.0 mg/kg/injection, schedule: Q01DX009 (sc), vehicle: saline); 8 of 8 (dose: 512.0 mg/kg/injection, schedule: Q04DX003 (ip), vehicle: saline); 8 of 8 (dose: 512.0 mg/kg/injection, schedule: Q08DX002 (ip), vehicle: saline); 5 of 8 (dose: 1024.0 mg/kg/injection, schedule: Q01DX001 (ip), vehicle: saline); 8 of 8 (dose: 1024.0 mg/kg/injection, schedule: Q01DX001 (oral), vehicle: saline); 8 of 8 (dose: 1024.0 mg/kg/injection, schedule: Q01DX001 (sc), vehicle: saline). Besides, the survivor count runs as follows: (dose: 1024.0 mg/kg/injection, schedule: Q01DX009 (ip), vehicle: saline) 2 of 8; (dose: 1024.0 mg/kg/injection, schedule: Q01DX009 (oral), vehicle: saline) 8 of 8; (dose: 1024.0 mg/kg/injection, schedule: Q08DX002 (ip), vehicle: saline) 7 of 8.

For `COc1cc2c3c(c1)-c1c(ccc(OC)c1Oc1nnnn1-c1ccccc1)CC3N(C)CC2` (centres undefined), the survivor count is on record as 2 of 2 (dose: 1.0 mg/kg/injection, schedule: Q01DX001 (ip), vehicle: other); 2 of 2 (dose: 10.0 mg/kg/injection, schedule: Q01DX001 (ip), vehicle: other); 2 of 2 (dose: 100.0 mg/kg/injection, schedule: Q01DX001 (ip), vehicle: other).
